LdMetRS: 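Methionyl-tRNA synthetase (putative), Leishmania donovani (UniProt E9BF75). Primary screen of methionyl-tRNA synthetase; the read-out is not stated. The test concentration is not given. The values are filed as inhibition. Of about 68,000 compounds tested this way, about 24 (0.035%) reached 50% or more in at least one test.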
Mtb heat-shock: 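Assay on Mycobacterium tuberculosis, filed only as a heat shock assay from Cornell; the read-out is not stated. The concentration is filed as 10 mM, unlikely as a test dose, so the dose is not known. Higher reads as stronger inhibition (inferred: compounds with an IC50 in retests scored well above the rest). About 69,000 compounds were tested under these conditions; 1.4% (about 930) showed 50% or more at least once.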

Sequences of proteins named here, by UniProt entry; tags and fusion partners are left off.
UniProt E9BF75, entry or part of it: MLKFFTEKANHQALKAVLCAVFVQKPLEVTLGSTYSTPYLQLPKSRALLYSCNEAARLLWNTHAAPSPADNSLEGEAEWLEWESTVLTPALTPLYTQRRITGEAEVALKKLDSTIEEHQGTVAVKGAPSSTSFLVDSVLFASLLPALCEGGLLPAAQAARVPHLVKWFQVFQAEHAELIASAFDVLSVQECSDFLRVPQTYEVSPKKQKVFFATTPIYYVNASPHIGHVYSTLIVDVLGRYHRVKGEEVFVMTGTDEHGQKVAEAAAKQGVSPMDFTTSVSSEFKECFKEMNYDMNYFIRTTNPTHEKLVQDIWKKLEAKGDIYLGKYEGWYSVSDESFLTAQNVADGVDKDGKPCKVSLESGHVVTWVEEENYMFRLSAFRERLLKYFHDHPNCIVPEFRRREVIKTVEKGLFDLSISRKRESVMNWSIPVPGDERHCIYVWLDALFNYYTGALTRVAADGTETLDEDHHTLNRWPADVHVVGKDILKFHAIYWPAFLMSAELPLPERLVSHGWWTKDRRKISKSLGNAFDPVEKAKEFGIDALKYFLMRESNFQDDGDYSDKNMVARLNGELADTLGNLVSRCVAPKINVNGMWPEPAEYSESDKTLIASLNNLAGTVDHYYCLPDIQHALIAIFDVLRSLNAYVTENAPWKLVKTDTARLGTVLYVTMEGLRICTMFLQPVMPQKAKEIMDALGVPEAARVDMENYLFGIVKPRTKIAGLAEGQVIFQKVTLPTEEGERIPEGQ

Results are percentages, as filed.
The controls that fix the scale are not given in the record; negative values are as filed.
Compounds were drawn at random from those tested, without regard to their results.
A dash means the value is not listed here; it may have been measured.

SMILES,LdMetRS,Mtb heat-shock
CCOC(=O)CNC(=O)N1CCC(OC)c2ccccc2N(C)C(=O)C1 (stereo not given),17.26,8.86
COCCc1noc(CN(C)C(=O)C(C)N2CCc3ccccc3C2)n1 (stereo not given),12.9,-0.7372
O=C(O)C(F)(F)F.O=C(O)C(F)(F)F.[H][C@]12CCN(C(=O)c3cccs3)C[C@@]1([H])OCCN(CCN(C)C)C2,-,-0.5819
Cc1noc(COCC(=O)Nc2ncccc2Br)n1,4.19,-6.947
CC(C)c1cc(NC(=O)CN2CCC(N3CCNC3=O)CC2)on1,10.8,8.871
O=C(Cc1ccsc1)N1CCOC(c2nc(-c3ncccn3)no2)C1 (stereo not given),19.77,-13.62
CNCCN1C(=O)CC[C@H]2CN(c3cnc4ccccc4n3)CC[C@H]21,6.03,-
CN(C)c1ncc(I)c(C2CCCCN2S(C)(=O)=O)n1 (stereo not given),14.92,-0.4332
CC(C)(C)C(=O)N1CCC(n2cc(C3(O)CCCC3)nn2)CC1,17.38,10.73
Cc1ccc(N2CCCC(N(C)Cc3cc(C)no3)C2)nn1 (stereo not given),11.71,-9.601
N#Cc1c2n(c3c(=O)[nH]cnc13)CCCCC2,4.101,-5.869
C1CC(NCc2nc(C3CC3)no2)CN(Cc2noc(C3CC3)n2)C1 (stereo not given),3.922,-3.7
CN1CCN(CC2CC2)C(=O)C12CCN(C(=O)c1ccnnc1)CC2.O=C(O)C(F)(F)F,-,-32.17
CN1CCCC[C@@H]2[C@H]1[C@@H](c1ccccc1)CCN2C(=O)c1ccncc1,12.5,-
CCO[C@@H]1CCN(C(=O)c2ccc[nH]2)[C@@H]1Cc1cccnc1,12.09,-
COCC(=O)NC(C)Cc1cccc(Br)c1 (stereo not given),11.22,22.5
[H][C@@]12COC[C@]1(COC)CN(Cc1cccnc1OC)C2,-,-14.1
CCC(NCc1ccccc1C)c1ccccc1OCC(=O)NC (stereo not given),1.95,-21.93
CC(C)C(=O)N1CCCC(Cc2ccccn2)C1 (stereo not given),11.01,-21.95
O=C(c1ccc2c(c1)COC2)N1CCCN(Cc2cscn2)CC1,3.825,-3.743
Cc1ccnc(OC[C@@]23CCO[C@@H]2CCN(S(C)(=O)=O)C3)n1,12.41,-
CCCn1cc(C(=O)N[C@H]2CC[C@H](n3cnnc3)CC2)c(C)n1,16.72,13.56
O=C(CCS(=O)(=O)C1CCCC1)NCCc1cccc(O)c1,8.681,9.036
Cc1ccoc1C(=O)N1CC[C@@]2(C[C@H](NS(C)(=O)=O)CCO2)C1,13.14,12.65
CCN1CCN(C(=O)C(C)SC)CC1 (stereo not given),8.696,14.9
Cc1ccc2c(n1)N(CC1CC1)CCN(C(=O)c1ccncc1F)C2,14.7,-
Cc1nc(CN2CCO[C@@H]3CN(C(=O)CN(C)C)CC[C@@H]3C2)cs1,5.882,-
CC(C)c1cc(C2CCN(C(=O)Cn3cnnn3)CC2)[nH]n1,10.84,-19.85
c1ccc(-c2cnc(CNC3CCc4ncnn4C3)o2)cc1 (stereo not given),5.263,-40.89
O=C(c1cn(CC(=O)N2CCCCC2)c2ccccc12)C1CC1,1.553,-7.371
CNS(=O)(=O)c1ccccc1N1CCN(C(C)C(=O)OC)CC1 (stereo not given),6.596,-22
CC(C)n1nc(Cn2cccn2)c2c1CN(C1CCOCC1)C2,13.14,-
Oc1ccc(CCC2CCCCN2Cc2noc(C3CC3)n2)cc1 (stereo not given),8.75,-9.35
CCCc1nnsc1C(=O)N1CCN(CC(C)O)CC1.Cl (stereo not given),-,-3.479
CCNC(=O)N1C[C@@H]2OCC(=O)N(C)[C@@H]2C1,0,-
CCn1c(N)nc2cc(C(=O)NCc3ccccc3Cl)cnc21,10.34,5.071
COc1ncccc1CNCc1c(C(C)C)nn(C)c1Cl,3.896,9.863
Cc1nn(C)cc1CN(C)Cc1cc2c(cc1OC(F)F)OCO2,5.576,2.396
Cc1cc(CNC(=O)CN2CCN(C(=O)OC(C)(C)C)CC2)ccc1F,6.052,-16.64
FC1(F)CCN(Cc2cccnc2)CC12CCN(c1cnccn1)C2 (stereo not given),4.636,-
Cn1cc(CC2CC(=O)N(Cc3ccccc3OC(F)F)C2=O)cn1 (stereo not given),10.97,-8.538
Cn1cc(-c2ncc3c(c2C(=O)O)CCN(Cc2ccccn2)C3)cn1,8.211,-
CCn1c(C2CCCN(Cc3cccc4cnccc34)C2)nn(C)c1=O (stereo not given),9.964,-3.573
[H][C@@]12C[C@H](c3ccnc(C)n3)O[C@@]1([H])CCN(c1cc(OC)ncn1)C2,-,13.84
CCn1nc(C)c2c1cnn2CCNS(=O)(=O)Cc1ccccc1,8.215,-3.88
CC(C)c1cc(C2CCCN2C(=O)CN2C(=O)OC(C)(C)C2=O)no1 (stereo not given),17.76,3.876
Cc1cc(C(F)(F)F)nc(N2CCN3CCCC3C2)n1 (stereo not given),13.51,9.876
CN(C)CCN1C(=O)CCC12CCCN(C(=O)c1cccnc1)CC2 (stereo not given),18.91,-
Cc1csc(CNC(=O)NCC(O)c2ccccc2)n1 (stereo not given),4.348,-1.938
CCOc1cccc(COC(=O)c2cc(Cl)ccn2)n1,14.44,-16.28
CNC(=O)C1CN(C)CCN(C(=O)CCn2nnc3ccccc32)C1 (stereo not given),11.56,6.821
[H][C@]12CN(C)CCN1C(=O)N(c1ccccc1)C2,-,-40.04
O=C(c1cccc(Cn2ccnc2)c1)N1CCCC(n2ccnc2)C1 (stereo not given),10.48,1.178
O=C(C1CC1)N1CCOC2(CCNCC2)C1,11.89,-
CN(C)C(C(=O)N1CCCC1)c1ccccc1F (stereo not given),13.27,12.45
N#CCCNC(=O)c1ccn(-c2ccc3ccccn23)n1,11.76,1.329
Cc1ccc(N2C[C@H](O)[C@@H](N3CCN(c4ccccn4)CC3)C2)nn1,14.63,-6.885
Cc1nc(C)c(CN(C)C2CCN(C(=O)OC(C)(C)C)CC2)s1,11.68,-16.85
CCOC(=O)C1CCCCN1Cc1c[nH]nc1-c1cc2ccccc2o1 (stereo not given),3.922,6.204
COc1ccccc1CC(=O)N1CCN(Cc2ccco2)C[C@@H]1C,19.31,-4.249

Once more, the final 5:

{"smiles": "N#CCCNC(=O)c1ccn(-c2ccc3ccccn23)n1", "LdMetRS": 11.76, "Mtb heat-shock": 1.329}
{"smiles": "Cc1ccc(N2C[C@H](O)[C@@H](N3CCN(c4ccccn4)CC3)C2)nn1", "LdMetRS": 14.63, "Mtb heat-shock": -6.885}
{"smiles": "Cc1nc(C)c(CN(C)C2CCN(C(=O)OC(C)(C)C)CC2)s1", "LdMetRS": 11.68, "Mtb heat-shock": -16.85}
{"smiles": "CCOC(=O)C1CCCCN1Cc1c[nH]nc1-c1cc2ccccc2o1", "stereo": "stereo not given", "LdMetRS": 3.922, "Mtb heat-shock": 6.204}
{"smiles": "COc1ccccc1CC(=O)N1CCN(Cc2ccco2)C[C@@H]1C", "LdMetRS": 19.31, "Mtb heat-shock": -4.249}

Data taken from ChEMBL document CHEMBL3988442, “University of Dundee, Small-Polar-MMV Screening Library” (2021).